# Assay results reported in patent publication US20180179539.
# For some of these results: For at least one entry, the source does not settle the construct or the ends of the probe. For some of these results: At least one result comes from cells or an extract, where the contact may be indirect.
# Assays:
# [1] = system: GluA2Qflip AMPA receptor (GluR2Q flip); assay: activity in cells; details: protein in cells; for functional effect of the aptamer: monomeric RNA active, hydrogel form inactive
# [2] = system: GluA2Qflip AMPA receptor (GluR2Q flip); assay: SELEX; details: protein in cells
sequence,measurement,setting,value
GGGAGAAUUCAACUGCCAUCUAGGCGGCGCAAAAAAAAAAAAAUGGGUCAUGGGAAAGGGCAGGUGAGAGGACUAGUACUACAAGCUUCUGGACUCGGU [D17],functional effect of the aptamer (A'/A potentiation ratio),"[1]; 2 uM D17, 0.1 mM glutamate, average of three cells, potentiation lost, binding not measured, variant of CZ",1.03
GGGAGGCGGAUUCGAGAAUUCAACUGCCAUCUAGGCGGCGCAAAAAACGUAAAAUGGGUCAUGGGAAAGGGCAGGUGAGAGGACUAGUACUACAAGCUUCUGGACUCGGAUCCGUGACCCAAAGGUCAUACUCCCGGAGAAUUCAACUGCCAUCUAGGCGGCGCAAAAAACGUAAAAUGGGUCAUGGGAAAGGGCAGGUGAGAGGACUAGUACUACAAGCUUCUGGACUCCAAUAUU [2CZ],functional effect of the aptamer,"[1]; 2 uM 2CZ potentiated current response to 0.1 mM glutamate, pH 7.4, -60 mV, variant of CZ",active
GGGAGAAUUCAACUGCCAUCUAGGCGGCGCAAAAAACGUAAAAUGGGUCAUGGGAAAGGGCAGGUGAGAGGACUAGUACUACAAGCUUCUGGACUCGGU [CZ],functional effect of the aptamer,"[1]; whole-cell recording, -60 mV, 22 C, dose not given here",active
same,selection result,[2],selected
